{
  "source": "patent US20250066853A1",
  "about": "“PHARMACEUTICAL COMPOSITION FOR THE TREATMENT AND/OR PREVENTION OF ANEURYSMS, DIAGNOSTIC SUPPORT METHOD FOR ANEURYSMS, AND METHOD FOR EVALUATING ANEURYSM THERAPEUTICS” (RIKEN, priority 2021, published 2025)",
  "key": {"[1]": {"tested_on": "PDGFRβ mutants (p.Y562N, p.Y562S, p.Y562D, p.559_562del, p.563_564del)", "settings": "TKI 10 nM or 100 nM, 3 hours, Western blot"}, "[2]": {"tested_on": "mouse model of cerebral aneurysms (PDGFRβ p.559_562del)", "assay": "Mouse cerebral aneurysm model with AAV-introduced PDGFRβ p.559_562del, basilar artery size (Example 2)", "assay_type": "in vivo", "settings": "mice with AAV PDGFRβ p.559_562del; daily i.p. sunitinib 40, axitinib 25, dasatinib 10 mg/kg/day; 28 days post-infection; versus vehicle; sunitinib p<0.05 (Mann-Whitney U)"}, "[3]": {"tested_on": "mouse model of cerebral aneurysms (PDGFRβ p.559_562del)", "assay": "Mouse cerebral aneurysm model with PDGFRβ p.559_562del, low-dose treatment from day 7, maximum diameter of basilar artery (Example 3)", "settings": "low concentration ranges; administration from day 7 after mutation introduction"}},
  "note": "Entries after “also recorded” stand apart in the source; their conditions may differ. At least one structure is not confirmed: it was looked up by name or label, or the drawing left a doubt.",
  "data": [
    {"compound": "CCN(CC)CCNC(=O)c1c(C)[nH]c(/C=C2\\C(=O)Nc3ccc(F)cc32)c1C", "note": "[sunitinib]", "values": [
      {"measurement": "Phosphorylation of tyrosine with PDGFRβ (PDGFRβ phosphorylation)", "setting": "[1]; HEK293T cells overexpressing PDGFRβ mutants", "value": "significantly inhibited; also recorded: suppressed"},
      {"measurement": "ERK phosphorylation", "setting": "[1]; HEK293T cells, three Y562 mutants, p.559_562del and p.563_564del", "value": "suppressed"},
      {"measurement": "Enlargement (dilation) of basilar artery", "setting": "[2]", "value": "smaller basilar arteries compared to those treated with vehicle alone; also recorded: suppressed the vascular enlargement; also recorded: suppressed this arterial dilation"},
      {"measurement": "Treatment effect on cerebral artery expansion (rank order)", "setting": "[3]", "value": "then sunitinib"}
    ]}
  ]
}
